Results on 104 sequences are retold here after PubChem BioAssay AID1347423 (Functional Genomics Laboratory (NCATS/FGL), 2020).

Among all 52,000 sequences or so, about 210 (0.4%) were called active.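 Rule for the calls: active = gene whose silencing raises cell survival under the drug, median off-target-corrected z-score across its silencing RNAs 2 or more; inactive = the rest.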 The list shows a part of the results.

A short description of the experiment: Resistance to Poly (ADP-Ribose) Polymerase inhibitor: Gene Identification via Genome-wide siRNA Screen. To be noted: mouse BRCA2 R2336H ES cells, olaparib, CellTiter-Glo viability; hits give high values. An outline of the steps:
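Genome-wide siRNA screen (3 siRNAs/gene, 20 nM) in mouse ES cells carrying hypomorphic BRCA2 R2336H; olaparib 500 nM added 48 h post-transfection, CellTiter-Glo viability 72 h later. Normalized to plate-median negative control; MAD z-scores, gene median, seed-adjusted.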
(ATP-based viability assays read luminescence as a measure of living cells.)
As for CGUACAAGACCAACAGAAGTT against D8Ertd82e, the z-score was inactive: 2.36.

GGUAUUUCCUAAGUUGCGCTT against Rutbc2: the z-score is inactive: -0.138.

As to GCCCUCGUUCAUACCGUAUTT against Olfr332, the z-score is inactive: 0.911.

Take GGCUGCUGUUAACAAGCUGTT against Wdr13: the z-score was inactive: -0.38.

In the case of GGCAUCCUGUGUUUUAACUTT against Mmp3, the z-score was inactive: 0.452.

Turning to CCGCAUGACACGACAUGUATT against BC034097, the z-score was active: 2.56.

For the sequence CGGAAUCUAGGCUUGUGCATT against Timp1, the z-score is inactive: -1.09.

Turning to CCAAGUAUUUUUCUCCUUATT against Stk38, the z-score was inactive: -0.963.

Turning to GGCUAAGACUAUGUUGUAATT against Mcsp, the z-score was inactive: -0.0249.

Consider CCUCGUUCCUAUCAUUAACTT against Sdccag8, for which the z-score was inactive: 0.858.

With GGUCUUCCUGUUCUUGCUCTT against Olfr1009, the z-score is inactive: 0.917.

As to GGGUCCAUUGUCAAUGUCUTT against Cbr2, the z-score is inactive: -0.721.

Take “UGGCUGCCCACACCUUUAATT against 9130416N05Rik”: the z-score was inactive: -1.13.

On to “CCGUUUCUUUCCAUGAUAATT against D6Ertd245e”, for which the z-score is inactive: 1.17.

For CGCCGAAAGACAAGAGUAUTT against Tgm3, the z-score is inactive: -1.15.

For GACCGUCACCGCUAUGGAUTT against Hist2h4, the z-score was inactive: -1.19.

For GCAGAUCUAUCCUAGCCGGTT against Sui1-rs1, the z-score was inactive: 1.95.

As for GGAGAACAUAAAAAUGGUGTT against Stk39, the z-score was inactive: -0.152.

Turning to “GGUGGAACACAAUGGAUGCTT against A830006F12Rik”, the z-score is inactive: -0.903.

For GGAAGAUCCAUUAUUUACUTT against AI450540, the z-score is inactive: -0.165.

GGUUACCAAGCCUAAGACCTT against Hist1h1b: the z-score was inactive: -0.915.

With CCAAUUCGUGUUAAGGAACTT against Mina, the z-score was inactive: -1.35.

As for “CCCAGGAUUCUACUAGAUUTT against 9130207N01”, the z-score is inactive: 0.699.

As for GGACUUCAUGGAAAAUCUGTT against Pofut1, the z-score is inactive: 0.182.

Consider GGCCUUCGAAAUAAUUCUGTT against Ppp1r14d, for which the z-score is inactive: -0.233.

As to “GGAAUGACUCUAGAAAUGATT against 3110050K21Rik”, the z-score is inactive: -0.684.

On to GCAUCGUCUAUAUUUUUGGTT against Timm50, for which the z-score is inactive: 0.16.

As for “GGUUCUUAGCCUUAACCAUTT against 9130422G05Rik”, the z-score is inactive: -1.02.

Turning to GGACAUAAAAAUACGCCAGTT against Hsf1, the z-score was inactive: 3.22.

In the case of GCAUGGAGAUUCUGUGCGGTT against Trim45, the z-score was inactive: -0.0509.

With CCUUCUUUUACCGUCUCAATT against Gpr31c, the z-score was inactive: -0.574.

Turning to “CGAGUUAGUUUUUCUGGGCTT against 4833401D15Rik”, the z-score is inactive: 0.645.

For the sequence GCCUCAUUUAUCAUGCGCGTT against BC023179, the z-score is inactive: -0.404.

On to GGAUUUGUCUUCUUUUGUCTT against Kif3b, for which the z-score is inactive: 1.59.

Regarding “GGCAAAAAUCAUUGUCAUUTT against C330018K18Rik”, the z-score was inactive: -0.0885.

In the case of “GGAUAUGUACAGGAGCUAUTT against 1100001D10Rik”, the z-score was inactive: -0.224.

Consider GGCACAGAGAACAAUACUUTT against Npy5r, for which the z-score was inactive: -0.556.

As for GGAAUUUGCUGAAUUGCUCTT against Ophn1, the z-score is inactive: -0.28.

Turning to CCCUUUCAACCAUUAAGCUTT against Kcns2, the z-score is inactive: 2.36.

GCAUGACGGUGUUAACUACTT against Jam3: the z-score is inactive: 0.45.

Regarding “GAUAAUUUGCACAUCCUCUTT against G630049C14Rik”, the z-score was inactive: 1.4.

Take GGCUCGGUAUCGUUUUUCATT against Arl3: the z-score is inactive: -0.411.

Turning to CCUGUCCUGAUGGUGAAACTT against LOC381286, the z-score is inactive: -0.393.

With “GGAAUUCAUGAACUACUAUTT against 1700028N11Rik”, the z-score is inactive: 0.136.

On to CCAUCAUAUCAGACCCUGGTT against Olfr733, for which the z-score is inactive: -3.5.

With GCUACGUUCGAUAUGGGUGTT against H2-Tw3, the z-score was inactive: -0.57.

For CCCAGCACAUGCUAUCUCUTT against Zfp295, the z-score is inactive: -0.42.

With “CCCUAAACCUCUUUCAACATT against A530083I02Rik”, the z-score was inactive: 0.136.

Turning to GGCCAUUUCUUUCAUAGAUTT against Dusp6, the z-score is inactive: 1.22.

As to CCAACUCGGAUCAACUUAUTT against Nfia, the z-score was inactive: 1.38.

Consider CCUCAGUUAUAGAUGAUCUTT against Rdh11, for which the z-score is inactive: -0.618.

Take “GGAAAACCCUAGCACCAUGTT against A430093F15Rik”: the z-score was inactive: -1.16.

As for GGACACAUACUACACUAAGTT against Rent1, the z-score was inactive: 0.916.

Consider GCAGAUGCAAUUAUUACCCTT against Kcnmb1, for which the z-score was inactive: -0.00881.

Turning to “CCAGAAGUCUUGCUGUCUGTT against 0710001E13Rik”, the z-score is inactive: 0.432.

In the case of GGGAGUUCUUGACCAAAUGTT against Katna1, the z-score is inactive: 0.469.

GAUAUGGAGGGCUAUGAUUTT against AI325464: the z-score is inactive: -1.38.

On to “GGCAGAAACCAACCAACACTT against 2810410L24Rik”, for which the z-score was inactive: 0.765.

“GCUAUAGGCUUAAUGAAAATT against 4931406B18Rik”: the z-score is inactive: -0.0731.

For GUAAAAGGAGAUGAAGACATT against Sly, the z-score is inactive: 1.12.

In the case of GCACAAUUGGAAUUGUACATT against Ubqln2, the z-score is inactive: 0.825.

In the case of CCAGGGUAUGUAAAUAUCUTT against Epha8, the z-score was inactive: 1.22.

In the case of GGGUUGUUUACAGUGAUCUTT against BC049806, the z-score was inactive: -1.54.

As to GGAGAAGAUCACAAGAGGGTT against Ugalt2, the z-score is inactive: -0.288.

On to GGUCCACAAUGGCAUCAUATT against Elf4, for which the z-score is inactive: -0.197.

Regarding GGCUUUGGUCAAGGAGAAGTT against Pias4, the z-score is inactive: -0.845.

For GGGAAGAGUGGUGCAAUGATT against Olfr155, the z-score is inactive: 0.39.

Regarding GCGGAUCUCCCUAAGAAUUTT against Ctsz, the z-score is inactive: -0.935.

Regarding GGGAAACACCUGGGUGCUUTT against Ctrl, the z-score was inactive: 2.74.

With CCCUUUAACAGCAAUUGUATT against Pramel5, the z-score was inactive: -1.56.

CGUCUAGGAUGUGAAGUUUTT against Rbp4: the z-score was inactive: -0.596.

In the case of GAAAGUGAAACCAUUGCUGTT against Defb37, the z-score was inactive: -0.12.

As to GUAAAUAAAUCUGGUGGCATT against Rps25, the z-score is inactive: -2.18.

For the sequence “CCCAGGUGAGACCUUUACCTT against 1600019O04Rik”, the z-score was inactive: 1.34.

GGUAGUGGAGACAGAGAAGTT against Rasgrf1: the z-score was inactive: -1.29.

Regarding “GGCUUUGCUACUUGGGAUATT against 2810046M22Rik”, the z-score is inactive: -1.31.

“GGAAAGAAGCGAAUUACACTT against 1110034B05Rik”: the z-score was inactive: -1.55.

As to GGAAGAACUAGAAGAAAAUTT against Vdp, the z-score was inactive: 0.336.

CCUUGAUGGUAAAUACUCATT against V1rh3: the z-score is inactive: -1.27.

On to GGCAUUGCACAAAAUCUAATT against BC026439, for which the z-score is inactive: 0.359.

In the case of GGACACAUGGAUGGAAUGUTT against Cd5l, the z-score is inactive: 2.12.

Take GGACAAUGCUAAUGAGACCTT against Gcet2: the z-score is inactive: -0.588.

Take GCGAGUAGGACCAGUGAAATT against Xpo1: the z-score was inactive: -2.67.

For the sequence GGCAUUAGAGACAGACUGGTT against Phca, the z-score was inactive: -0.346.

GGCCUCUUAUAUAGAAUAATT against Polr3f: the z-score was inactive: -0.917.

As for GGUGAGACAUUUCAAGAAATT against Ndufb2, the z-score is inactive: 1.66.

As to GGAGACGUGGGAAAAGCUATT against Gucy1b2, the z-score is inactive: 0.737.

On to GGCUUAUCGAUCGACAGUUTT against Nup155, for which the z-score is inactive: -1.7.

Take “GGAAAGUUGAAGAUUAAAGTT against 2610207I16Rik”: the z-score is inactive: 0.783.

Turning to GGAGAAUGACCAGCUGAUCTT against Deb1, the z-score is inactive: 0.39.

As for GGAUCAUUUCCUAGGACUGTT against Cox15, the z-score is inactive: -0.164.

As to GGAAGCUUCAAGCCAUGGUTT against Creb3, the z-score is inactive: 1.14.

Consider “GGAUGAAGAUACAGAGGUATT against 4933400C05Rik”, for which the z-score was inactive: -2.47.

As for GCAACGCAGUACUCUACCCTT against Tenc1, the z-score is inactive: 0.502.

On to GGCUAUCACACAGCAUAGATT against Rdh7, for which the z-score was inactive: 0.208.

GCCUUAGGUUGAUAGGAGGTT against Tas2r110: the z-score was inactive: -0.159.

Consider GGUUUAUUGACCAUCUAAUTT against Ttc4, for which the z-score is inactive: 0.0667.

With GCUCGCCUGCAUUUCAUCATT against Pank4, the z-score is inactive: 1.53.

As for CCACGGUCUCUUAUUUAUGTT against Pim3, the z-score is inactive: 0.219.

Take “GGUCGAGACUCCAUCAUAATT against 8430408H12Rik”: the z-score was inactive: -1.81.

Turning to CCUACACAACCGUGUUCAATT against Gtf3a, the z-score was inactive: -0.792.

GCACCCUUGAGAAAUCCAATT against Cfdp1: the z-score is inactive: 0.385.

For GGAACUAACAUCACACCGATT against Lmtn, the z-score is inactive: 2.24.

On to GGAGACCUUUGCUCAUCUCTT against Hbb-bh1, for which the z-score was inactive: -0.464.
